Results are given in words; binding and its absence hold for the method and conditions named. Some binding calls cover weakened binding; strength is not graded here.

Test [1] addresses 6xHis-eGFP-hnRNPK fusion (full-length wild-type hnRNPK) (UniProt P61978). The test is described as follows: X-ray diffraction of a hydrogel + SEM; eGFP-hnRNPK concentrated to 11.5 mg/mL, dialysed in 50 mM HEPES, 300 mM KCl, pH 7.4 at 4 °C overnight; hydrogel kept 48 h at 4 °C; both purified.
The target of test [2] is Heterogeneous nuclear ribonucleoprotein K (hnRNPK), full-length wild type with an additional N-terminal glycine (UniProt P61978). The test is described as follows: condition: only sample kept at 4 °C and at low protein concentration; SEC-MALS; SEC-LS (RALS, RI, UV) on Superdex 200 Increase 10/300 run at room temperature; hnRNPK sample kept at 4 °C (vial holder at 4 °C), low concentration; both purified.

As to “6xHis-eGFP-hnRNPK fusion (full-length wild-type hnRNPK) (from UniProt P61978 1-463)”, in test [1], the binding result is on record as “binds”.
Take “Heterogeneous nuclear ribonucleoprotein K (hnRNPK), full-length wild type with an additional N-terminal glycine (from UniProt P61978 1-463)”: the binding entry in test [2] is “no binding”.
